The record followed here is publication PMC10458388.

Results are given in words; binding and its absence hold for the method and conditions named. A result given as binding can be weak or reduced; the word gives no strength.

The test concerns the target C-terminus of human Hsp90α (residues 566-732) (human) (UniProt P07900). As to the kind of experiment: SEC-MALS; SEC-MALS-QELS of the mixtures, molecular mass of the complex (Table S1); SbRPAP3 15 µmol/L with SsHsp70 15 µmol/L; SbRPAP3 with C-Hsp90; both purified.

In the case of “Sorghum bicolor RPAP3 (RNA polymerase II-associated protein 3), isoform 2 (from UniProt C5YZG3)”, the binding result is given as “binds”.
